Results are given in words; binding and its absence hold for the method and conditions named. In cells and extracts the contact can be indirect. Here binding means that the protein was enriched with, or labelled near, the bait; the list need not be complete.

The chains behind the UniProt entries cited, without tags or fusion partners. Where a name states a change or a piece, a line headed by the entry shows the natural chain unless it says otherwise.
UniProt Q38ET5: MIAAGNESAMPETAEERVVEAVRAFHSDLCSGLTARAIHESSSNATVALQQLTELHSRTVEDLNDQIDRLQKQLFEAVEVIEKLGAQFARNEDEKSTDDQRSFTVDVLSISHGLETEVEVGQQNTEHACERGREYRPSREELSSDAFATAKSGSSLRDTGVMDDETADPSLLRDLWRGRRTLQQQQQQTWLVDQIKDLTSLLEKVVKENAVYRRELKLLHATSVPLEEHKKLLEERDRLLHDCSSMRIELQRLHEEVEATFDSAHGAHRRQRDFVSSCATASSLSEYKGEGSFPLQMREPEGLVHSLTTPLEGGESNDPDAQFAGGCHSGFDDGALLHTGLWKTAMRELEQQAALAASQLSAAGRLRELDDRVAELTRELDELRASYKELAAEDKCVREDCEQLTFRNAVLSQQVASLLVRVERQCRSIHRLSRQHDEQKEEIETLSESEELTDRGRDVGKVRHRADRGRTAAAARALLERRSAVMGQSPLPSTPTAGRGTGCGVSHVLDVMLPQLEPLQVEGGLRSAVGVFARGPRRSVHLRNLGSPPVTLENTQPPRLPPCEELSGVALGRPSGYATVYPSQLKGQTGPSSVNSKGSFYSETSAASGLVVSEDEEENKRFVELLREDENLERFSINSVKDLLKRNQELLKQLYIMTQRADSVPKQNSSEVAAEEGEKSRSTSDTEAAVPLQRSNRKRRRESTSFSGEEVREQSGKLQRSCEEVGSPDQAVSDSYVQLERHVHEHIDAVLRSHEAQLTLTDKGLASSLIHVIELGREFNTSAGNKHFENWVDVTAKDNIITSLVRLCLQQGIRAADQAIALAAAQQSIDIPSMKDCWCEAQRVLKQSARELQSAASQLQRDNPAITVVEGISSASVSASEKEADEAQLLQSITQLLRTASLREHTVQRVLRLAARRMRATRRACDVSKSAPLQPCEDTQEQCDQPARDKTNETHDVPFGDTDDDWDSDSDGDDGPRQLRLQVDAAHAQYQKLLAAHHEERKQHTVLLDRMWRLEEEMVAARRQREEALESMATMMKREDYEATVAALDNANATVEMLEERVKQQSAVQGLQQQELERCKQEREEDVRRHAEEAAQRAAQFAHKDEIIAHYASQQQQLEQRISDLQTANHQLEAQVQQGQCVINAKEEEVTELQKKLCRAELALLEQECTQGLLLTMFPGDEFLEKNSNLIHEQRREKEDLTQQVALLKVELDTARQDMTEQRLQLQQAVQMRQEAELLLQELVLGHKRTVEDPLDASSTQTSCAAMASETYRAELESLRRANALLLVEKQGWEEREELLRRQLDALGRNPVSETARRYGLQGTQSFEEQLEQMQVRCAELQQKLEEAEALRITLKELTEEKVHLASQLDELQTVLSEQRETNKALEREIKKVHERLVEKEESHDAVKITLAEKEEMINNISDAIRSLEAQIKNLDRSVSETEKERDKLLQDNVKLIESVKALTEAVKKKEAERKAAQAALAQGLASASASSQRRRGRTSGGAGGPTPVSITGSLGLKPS

This assay has as its target NUP-1::GFP (Trypanosoma brucei brucei Lister 427) (UniProt Q586V1). Description: affinity purification with mass spectrometry; NUP-1::GFP captured from cryomilled PCF trypanosomes on anti-GFP magnetic beads; 20 mM HEPES, pH 7.4, 250 mM NaCl, 0.5% Triton, 0.5% deoxy-BigCHAP; 1D SDS-PAGE, bands identified by MALDI-TOF MS and ESI-MS2.

With “NUP-2 (nuclear peripheral protein-2), product of Tb927.9.6460 (from UniProt Q38ET5)”, the binding entry is “binds”.

The values are drawn from publication PMC5159534.
